The values are deposited in ChEMBL (CHEMBL3988442, “University of Dundee, Small-Polar-MMV Screening Library” (2021)).

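Growth of Mycobacterium tuberculosis over 3 days (7H9 medium with glucose and tyloxapol); the read-out is not stated. Compounds at 50 µM. Direction is inferred from retests: higher values go with more growth inhibition. Size under these conditions: about 69,000 compounds, about 760 of them at 50% or above in at least one test.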

Each number is a percent effect as filed. The controls that fix the scale are not given in the record; negative values are as filed. This is an unselected part of the compounds tested. Two or more numbers in one place are separate tests of the same structure; such repeats can differ widely.

CN(CC(=O)N1CCCC1)C(=O)c1cccn1CCc1ccccc1 gave -16.82% & -4.118%.
O=C(Cn1nc(Br)nc1Br)N1CCOCC1 gave 2.635% & -21.68%.
[H][C@@]12COC[C@]1(c1nc(C)no1)CN(C(=O)Cc1ccsc1)C2 gave 12.56%.
OCC(CO)N1CCC(c2nnc(Cn3ccnc3)n2C2CC2)CC1 gave 4.059%.
CN(C)c1nccc(C2CCCN2S(=O)(=O)c2cn(C)cn2)n1 (stereo not drawn) gave 28.7%.
CC1CCN(C(=O)c2cnc3cc(C(=O)N(C)C)n(C)c3c2)CC1 gave -17.31%.
COc1ccc2c(c1)OCC(Cc1ccnc(N)n1)C2 (stereo not drawn) gave -4.321%.
O=C(Cc1ccc2c(c1)CCO2)N1CCCCC1Cn1cccn1 (stereo not drawn) gave 1.892% & 25.34%.
CCCn1cc(C(=O)NCc2nnc(-c3ccc(C)nc3)o2)c(C)n1 gave 16.62%.
Cc1cccc(SC2CCN(C(=O)CCCS(N)(=O)=O)CC2)c1 gave 3.729%.
CC(C)N1CCCC2(CCN(Cc3noc(C4CCCC4)n3)C2)C1=O (stereo not drawn) gave -27.2%.
CN(C)c1ccc(C(=O)NCc2ccc(N3CCOCC3)cc2)cn1 gave -1.008%.
CN(Cc1ccon1)C(=O)C1CC(=O)N(Cc2ccncc2)C1 (stereo not drawn) gave 33.02%.
O=C(O)C(F)(F)F.[H][C@@]12CCN(Cc3ccc(C)s3)C[C@]1(COCC(=O)N(C)C)CCO2 gave -48.93%.
O=C(NCC1CC1)Nc1cnc2cc(Cl)ccc2c1O gave -5.871%.
[H][C@]12CC[C@]([H])(CN(S(=O)(=O)c3cccc(Cl)c3C)C1)N(C)C2=O gave -5.609%.
CCCN1CCC(c2cc(CCOc3ccc(C(F)(F)F)cc3)[nH]n2)C1 (stereo not drawn) gave 7.012%.
Cc1nnc(N2CCCC2)c(C(N)=O)c1C gave -12.06%.
O=C(N1CCCC(n2cncn2)C1)C1(c2cccc(F)c2)CC1 (stereo not drawn) gave -8.81%.
CN(C)c1nccc(NC(=O)c2ccncc2)n1 gave -15.78%.
COCCCNC(=O)C(C)n1nc(-c2ccco2)cc(N)c1=O (stereo not drawn) gave -33.31%.
Cc1nn(C)cc1-c1cncn1CCN(C)C1CCCC1.Cl gave 16.61%.
Cc1nc(-c2nnc[nH]2)sc1C(=O)N1CCCC(C(F)(F)F)C1 (stereo not drawn) gave 7.391%.
COc1cc2c(cc1CN1CCc3sccc3C1C)OCCO2 (stereo not drawn) gave -2.148%.
Cc1c[nH]c(CN2CCCn3nc(CNS(C)(=O)=O)cc3C2)n1 gave -15.33%.
CC(C)(C)CN1CCCC12CCN(S(=O)(=O)c1ccccc1)C2.O=C(O)C(F)(F)F (stereo not drawn) gave 0.5581%.
Cc1ncsc1CCN(C)C(=O)c1ccc(Cn2cnnn2)cc1 gave -31.45%.
Cc1nc(C)n(CC2CCCN2Cc2coc(-c3cccs3)n2)n1 (stereo not drawn) gave -32.12%.
CC1CN(C(=O)c2sccc2Br)CCO1 (stereo not drawn) gave -12.49% & 1.557%.
CC(c1ccncn1)N(C)Cc1cc2cc3c(cc2[nH]c1=O)OCO3 (stereo not drawn) gave -10.59%.
Cc1ccc(CN(C)C(=O)CN2CCOC(Cn3cccn3)C2)o1 (stereo not drawn) gave -3.65%.
CN(C)C(=O)COC1COC2(CCN(S(C)(=O)=O)CC2)C1 (stereo not drawn) gave -8.216%.
CCSCc1csc(-c2ccc(S(C)(=O)=O)cc2)n1 gave 2.557%.
O=C(O)C(F)(F)F.[H][C@@]12CCN(C3CCOCC3)[C@]1([H])CC[C@H](C(=O)N1CCOCC1)O2 gave 11.07%.
COCCCN(Cc1ccncc1)c1cc(C)ncn1 gave 15.2% & -7.238%.
O=C(NC1CCc2ccccc2C1)N1CCN(C(=O)C2CCC2)CC1 (stereo not drawn) gave -20.65%.
CN(Cc1cc(C2CC2)[nH]n1)C(=O)C(c1cccnc1)N1CCCC1 (stereo not drawn) gave 0.5691%.
CCn1ccnc1CN1CCCN(C(=O)c2cncnc2C)CC1 gave -2.995% & -33.15%.
CCOc1ccccc1-n1c(CNC)n[nH]c1=O gave -8.58%.
O=c1ccc(-c2cccs2)nn1CN1CCOCC1 gave 9.512%.
O=C(Cc1c(F)cccc1Cl)Nc1cc(N2CCOCC2)ncn1 gave -5.684%.
COCC(C)NC(=O)c1nnn(-c2ccc(OC)cc2)n1 (stereo not drawn) gave 39.57%.
O=C(O)c1nnn(-c2ccc(C(F)(F)F)cc2)c1-c1ccncc1 gave -23.64%.
CCc1ncc2c(n1)CN(c1nccc(C3CCCC3)n1)C2 gave 47.68%.
[H][C@@]12COC[C@]1([H])[C@@H](OCc1cccnc1)CN2C(=O)c1ccc(C#N)cc1 gave -19.29%.
CCOCC(=O)Nc1cc(-c2cccc(F)c2F)n[nH]1 gave 10.3%.
C=C(C)COc1cccc(CN(C)C(C)c2nccs2)c1 (stereo not drawn) gave -3.207%.
COc1cccc(CN2CCCCCC2c2cccs2)c1OC (stereo not drawn) gave 15.13%.
O=C(NC1CCCC1)c1nc2c(o1)CN(C(=O)CO)C2 gave 11.73% & -2.969%.
Cc1cc(-c2ccc(=O)n(CCNC(=O)C3CCC3)n2)c(C)o1 gave -27.11%.
CSc1ccc(CN(CCO)C(=O)CCc2ccc(O)cc2)cc1 gave 12.17%.

Once more, the final 5:

For C=C(C)COc1cccc(CN(C)C(C)c2nccs2)c1 (stereo not drawn) the result was -3.207%.
For COc1cccc(CN2CCCCCC2c2cccs2)c1OC (stereo not drawn) the result was 15.13%.
For O=C(NC1CCCC1)c1nc2c(o1)CN(C(=O)CO)C2 the result was 11.73% & -2.969%.
For Cc1cc(-c2ccc(=O)n(CCNC(=O)C3CCC3)n2)c(C)o1 the result was -27.11%.
For CSc1ccc(CN(CCO)C(=O)CCc2ccc(O)cc2)cc1 the result was 12.17%.